Two substances from US20070282017A1 (Harvard, published 2007) can be followed below.

The chains behind the UniProt entries cited, without tags or fusion partners. Where a name states a change or a piece, a line headed by the entry shows the natural chain unless it says otherwise.
UniProt Q13526: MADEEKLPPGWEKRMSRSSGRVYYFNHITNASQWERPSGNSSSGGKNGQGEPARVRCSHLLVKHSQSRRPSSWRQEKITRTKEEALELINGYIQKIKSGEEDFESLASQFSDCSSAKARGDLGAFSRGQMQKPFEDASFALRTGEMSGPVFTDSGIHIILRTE

These are yes or no findings as the source states them, for the method shown. In cells and extracts the contact can be indirect. Some entries that bind do so weakly or less than the wild type. For some assays here: Where a sequence is shown, tags or fusion partners need not be part of it.

Assay [1] has as its target T1, Endogenous JIP3 in cerebellar granule neurons (rat) (UniProt E9PSK7).
T1 sequence (phosphorylated (sites not given), looked up): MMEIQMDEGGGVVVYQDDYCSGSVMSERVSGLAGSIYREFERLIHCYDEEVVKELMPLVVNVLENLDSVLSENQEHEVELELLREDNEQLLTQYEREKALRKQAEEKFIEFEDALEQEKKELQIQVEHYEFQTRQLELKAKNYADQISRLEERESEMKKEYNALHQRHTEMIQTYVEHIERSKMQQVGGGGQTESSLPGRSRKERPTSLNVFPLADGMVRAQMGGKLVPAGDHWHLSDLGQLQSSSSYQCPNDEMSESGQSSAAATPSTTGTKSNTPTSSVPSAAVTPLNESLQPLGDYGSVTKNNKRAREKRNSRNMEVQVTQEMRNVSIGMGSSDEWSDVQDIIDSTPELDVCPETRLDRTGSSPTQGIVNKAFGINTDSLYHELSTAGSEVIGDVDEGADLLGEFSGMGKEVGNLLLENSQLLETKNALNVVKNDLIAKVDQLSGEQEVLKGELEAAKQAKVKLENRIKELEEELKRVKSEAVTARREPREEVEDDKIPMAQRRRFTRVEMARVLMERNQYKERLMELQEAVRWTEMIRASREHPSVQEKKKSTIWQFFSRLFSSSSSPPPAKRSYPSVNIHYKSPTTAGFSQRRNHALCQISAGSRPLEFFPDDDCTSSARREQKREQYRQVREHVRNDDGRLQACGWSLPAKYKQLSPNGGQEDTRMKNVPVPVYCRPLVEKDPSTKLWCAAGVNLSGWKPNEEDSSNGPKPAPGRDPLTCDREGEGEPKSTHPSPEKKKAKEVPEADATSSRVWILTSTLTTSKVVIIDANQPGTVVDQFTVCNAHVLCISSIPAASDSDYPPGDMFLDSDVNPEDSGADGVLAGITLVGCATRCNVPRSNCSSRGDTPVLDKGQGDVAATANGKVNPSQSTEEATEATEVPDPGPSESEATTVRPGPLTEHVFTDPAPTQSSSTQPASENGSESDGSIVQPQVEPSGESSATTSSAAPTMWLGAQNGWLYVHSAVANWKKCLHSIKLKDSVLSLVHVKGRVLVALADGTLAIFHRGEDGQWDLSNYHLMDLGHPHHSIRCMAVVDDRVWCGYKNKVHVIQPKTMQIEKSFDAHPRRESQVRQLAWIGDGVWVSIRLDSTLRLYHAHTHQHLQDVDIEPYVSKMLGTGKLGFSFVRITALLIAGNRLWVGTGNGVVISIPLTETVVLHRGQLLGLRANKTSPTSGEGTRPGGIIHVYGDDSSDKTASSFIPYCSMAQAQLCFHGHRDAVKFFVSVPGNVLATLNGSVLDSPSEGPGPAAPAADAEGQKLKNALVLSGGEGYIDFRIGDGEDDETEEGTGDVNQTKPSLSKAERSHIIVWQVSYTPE
Put plainly: GST pulldown from granule neuron lysates, JIP3 immunoblot. On the technique in general: A western blot detects proteins with antibodies after separation by electrophoresis.

Assay [2] addresses T2, FLAG-tagged JIP3 fragment 1-442 (UniProt Q9ESN9).
T2 sequence (looked up): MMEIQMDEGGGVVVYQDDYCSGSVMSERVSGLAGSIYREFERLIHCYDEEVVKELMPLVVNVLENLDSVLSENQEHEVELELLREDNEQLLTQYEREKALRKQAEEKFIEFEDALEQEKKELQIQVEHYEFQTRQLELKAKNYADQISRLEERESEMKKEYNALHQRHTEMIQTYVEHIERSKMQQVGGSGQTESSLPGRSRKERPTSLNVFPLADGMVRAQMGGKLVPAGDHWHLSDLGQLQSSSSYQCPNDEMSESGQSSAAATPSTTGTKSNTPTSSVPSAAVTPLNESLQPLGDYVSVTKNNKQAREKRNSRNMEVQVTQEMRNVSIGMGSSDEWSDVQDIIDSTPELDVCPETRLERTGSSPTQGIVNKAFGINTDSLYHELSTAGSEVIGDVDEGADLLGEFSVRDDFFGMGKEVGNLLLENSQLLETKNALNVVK
Put plainly: GST-Pin1 pulldown from 293T lysates, anti-FLAG immunoblot.

As to “GST-Pin1 WW (recombinant GST fusion protein containing the WW domain of Pin1) (from UniProt Q13526 1-54)”, the binding result in assay [1] was “binds”. On to “Recombinant GST-Pin1 (from UniProt Q13526 1-163) (enzyme)”, for which the binding result in assay [2] is on record as “binds”.
